The test has as its system nude mice, LOX melanoma ip, survival T/C. The test is described as follows: NCI In Vivo Anticancer Drug Screen. Data for tumor model Human Amelanotic Melanoma (LOX) (intraperitoneal) in NU/NU BALB/C (nude) mice. The conditions noted are these: T/C endpoint: median survival time, higher T/C = longer survival. As for the experimental part: The antitumor activity of compounds was measured in mice bearing transplantable tumors. Survival or tumor size were measured and the results are expressed as the measurement made in the treated group (T) divided by the measurement made in the vehicle treated control group (C). The tumor model used in this assay is Human Amelanotic Melanoma (LOX) (intraperitoneal) in NU/NU BALB/C (nude) mice

The mark [1] stands for this setting: dose: 200.0 mg/kg/injection, schedule: Q04DX003 (ip), vehicle: suspension in saline.
[2] abbreviates: dose: 400.0 mg/kg/injection, schedule: Q04DX003 (ip), vehicle: suspension in saline.
[3] abbreviates: dose: 3.47 mg/kg/injection, schedule: Q04DX003 (ip), vehicle: other.

The list shows only some results of the screen, not a fair sample: it is rich in T/C values a quarter to a half above the control, in often repeated tests (any T/C) and in doses without a T/C. Further doses and runs are listed elsewhere. T/C is the treated group as % of the vehicle group. Some entries give survivors of the animals treated and no T/C: the source holds a T/C of zero for them, seemingly a mark for toxic or unscored doses. Some survivor counts are full or nearly so, which does not show that the dose was tolerated: the source hardly ever lists a survival T/C far under the control, and the zero likely stands for such cases as well. Counts of survivors are from the toxicity check (mostly the fifth day) where no day follows; animals may have died later. Schedule codes are those of the source, taken here to give the interval after Q, in days (D) or hours (H), and the number of doses after X. Some entries were tested several times; the values are given in rising order. Some molecules as drawn cover several salts, stereoisomers or complexes of the source; a dose is that of the sample tested. For survival time, this PubChem deposit counts one and a half times the control or more as active, and values a quarter to a half above the control carry no call in these data; other NCI protocols may use other cut-offs. Some T/C values are followed by the survivors on the day toxicity was checked, most often the fifth; where none is given, no animal had died by that day. Marks such as (2×) stand for listed records that agree.

In the case of `N/C(=N/N=C/c1cc(Br)cc(Br)c1O)NO`, the survivor count is, setting by setting: under setting [1], 2 of 6 on day 10; under setting [2], 0 of 6 on day 10.

For `Nc1ccc(S(=O)(=O)Nc2cnc3c(Cl)cccc3n2)cc1`, the T/C (dose: 450.0 mg/kg/injection, schedule: Q01DX005 (ip), vehicle: other) was 127 % of control [5 of 6 alive on day 10]. Also, the survivor count (dose: 450.0 mg/kg/injection, schedule: Q06HX002 (ip), vehicle: other) is 3 of 6 on day 10; the survivor count (dose: 674.7 mg/kg/injection, schedule: Q01DX005 (ip), vehicle: other) was 0 of 6 on day 10; the survivor count (dose: 1011.5 mg/kg/injection, schedule: Q01DX001 (ip), vehicle: other) is on record as 0 of 6 on day 10.

`O=C1c2c(O)ccc(O)c2C(=O)c2c(NCCNCCO)ccc(NCCNCCO)c21`: under setting [3], the T/C was 131 % of control [5 of 6 alive on day 10] (2×). For the same molecule, the survivor count by setting is: under setting [3], 4 of 6 on day 10; (dose: 5.0 mg/kg/injection, schedule: Q04DX003 (ip), vehicle: water) 6 of 6 on day 10; (dose: 10.0 mg/kg/injection, schedule: Q04DX003 (ip), vehicle: water) 6 of 6 on day 10; (dose: 20.0 mg/kg/injection, schedule: Q04DX003 (ip), vehicle: water) 0 of 6 on day 10.

As for `COC12[C@@H]3N[C@@H]3CN1C1=C(C(=O)C(NCCSSCCNC3=C(C)C(=O)C4=C(C3=O)C(COC(N)=O)[C@]3(OC)C5N[C@@H]5CN43)=C(C)C1=O)[C@@H]2COC(N)=O` (some centres undefined), the T/C is 127 % of control (dose: 0.78 mg/kg/injection, schedule: Q04DX003 (ip), vehicle: DMSO); 132 % of control (dose: 3.13 mg/kg/injection, schedule: Q04DX003 (ip), vehicle: DMSO); 132 % of control (dose: 6.25 mg/kg/injection, schedule: Q04DX003 (ip), vehicle: DMSO).

For the molecule `CC(=O)O[C@H]1C(=O)[C@@]2(C)[C@H]([C@H](OC(=O)c3ccccc3)[C@]3(O)C[C@H](OC(=O)[C@H](O)[C@@H](NC(=O)c4ccccc4)c4ccccc4)C(C)=C1C3(C)C)[C@]1(OC(C)=O)CO[C@@H]1C[C@@H]2O`, the T/C (dose: 1.88 mg/kg/injection, schedule: Q01DX009 (ip), vehicle: Klucel (hydroxypropylcellulose) (HPC)) was 147 % of control and the T/C (dose: 7.5 mg/kg/injection, schedule: Q01DX009 (ip), vehicle: Klucel (hydroxypropylcellulose) (HPC)) is 142 % of control. In addition, the survivor count (dose: 30.0 mg/kg/injection, schedule: Q01DX009 (ip), vehicle: Klucel (hydroxypropylcellulose) (HPC)) was 6 of 9 on day 10 and 10 of 10 on day 14.

As to `C/C=C/C=C/c1cc2cc3c(c(O)c2c(=O)[nH]1)C1(CC3)C(O)=c2c(=O)c3c(=O)cc(OC)c(=O)c=3c(=O)c2=C1O` (centres undefined), the T/C is 128 % of control (dose: 0.5 mg/kg/injection, schedule: Q04DX003 (ip), vehicle: water); 142 % of control (dose: 1.0 mg/kg/injection, schedule: Q04DX003 (ip), vehicle: water); 148 % of control (dose: 4.0 mg/kg/injection, schedule: Q04DX003 (ip), vehicle: water). Besides, the survivor count (dose: 8.0 mg/kg/injection, schedule: Q04DX003 (ip), vehicle: water) was 6 of 6 on day 10.

For `CCOC(=O)C1=C(Nc2ccc(OC)cc2)C(N)=NC1=N`, the T/C was 126 % of control under setting [1] and 134 % of control under setting [2]. Further, where the note is “dose: 800.0 mg/kg/injection, schedule: Q04DX003 (ip), vehicle: suspension in saline”, the survivor count is on record as 0 of 6 on day 10.

In the case of `COc1cc(NS(C)(=O)=O)ccc1Nc1c2ccccc2nc2ccccc12`, for the setting “dose: 10.0 mg/kg/injection, schedule: Q04DX003 (ip), vehicle: other”, the T/C is 126 % of control. Moreover, the survivor count by setting is: (dose: 20.0 mg/kg/injection, schedule: Q04DX003 (ip), vehicle: other) 0 of 6 on day 10; (dose: 40.0 mg/kg/injection, schedule: Q04DX003 (ip), vehicle: other) 0 of 6 on day 10.

For the molecule `CC(=O)C[n+]1ccccc1Sc1ccc(Cl)cc1`, the survivor count was 6 of 6 on day 10 (dose: 25.0 mg/kg/injection, schedule: Q04DX003 (ip), vehicle: saline with Tween-80); 5 of 6 on day 10 (dose: 50.0 mg/kg/injection, schedule: Q04DX003 (ip), vehicle: saline with Tween-80); 6 of 6 on day 10 (dose: 100.0 mg/kg/injection, schedule: Q04DX003 (ip), vehicle: saline with Tween-80); 0 of 6 on day 10 (dose: 200.0 mg/kg/injection, schedule: Q04DX003 (ip), vehicle: saline with Tween-80); 0 of 6 on day 10 (dose: 400.0 mg/kg/injection, schedule: Q04DX003 (ip), vehicle: saline with Tween-80).

For `NC(=O)c1cc(Cl)nc2nc(Cl)nc(N)c12`, the survivor count is on record as 6 of 6 on day 10 (dose: 75.0 mg/kg/injection, schedule: Q04DX003 (ip), vehicle: saline with Tween-80) and 6 of 6 on day 10 (dose: 1200.0 mg/kg/injection, schedule: Q04DX003 (ip), vehicle: saline with Tween-80).
